These are yes or no findings as the source states them, for the method shown. Some entries that bind do so weakly or less than the wild type.
Tests used:
p40 protein (human) [1] = target: T1, p40 protein (human) (UniProt Q9H3D4); test: ELISA, Western blot, IHC
T1 sequence (looked up): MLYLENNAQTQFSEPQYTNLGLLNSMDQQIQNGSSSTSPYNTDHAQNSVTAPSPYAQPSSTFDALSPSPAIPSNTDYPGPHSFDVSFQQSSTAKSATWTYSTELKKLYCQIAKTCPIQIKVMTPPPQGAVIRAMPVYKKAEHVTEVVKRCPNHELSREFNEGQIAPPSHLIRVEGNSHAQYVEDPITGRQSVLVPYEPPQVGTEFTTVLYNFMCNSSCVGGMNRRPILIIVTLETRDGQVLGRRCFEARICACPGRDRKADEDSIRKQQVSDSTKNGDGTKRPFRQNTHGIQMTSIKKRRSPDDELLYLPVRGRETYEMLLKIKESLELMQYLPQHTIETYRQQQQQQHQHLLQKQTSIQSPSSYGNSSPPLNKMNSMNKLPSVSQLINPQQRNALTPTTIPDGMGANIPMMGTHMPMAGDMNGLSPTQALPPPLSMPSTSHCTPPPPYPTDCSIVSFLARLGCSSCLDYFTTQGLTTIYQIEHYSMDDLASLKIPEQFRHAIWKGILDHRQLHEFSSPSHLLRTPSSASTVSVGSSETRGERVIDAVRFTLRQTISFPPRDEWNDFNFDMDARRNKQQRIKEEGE

p40 protein (human) [2] = target: T1, p40 protein (human); test: Western blot on p40 transfected cell lysate

B1: mouse monoclonal anti-p40 antibody BC28 (antibody, mouse IgG1, V domains shown)
VH: GVKLVESGGGFVKPGGSLTLSCAASGFTFSIYAMSWVRQTPEKRLEWVTSISSGDDIFYPDNLKGQFTISRDNARNILYLQMSSLRSEDTAIYYCVRHGYNATDYWGQGTSVTVSS
VL: DVLMTQTPLSLPVSLGDQASISCRSSQSIVYSNGNTYLEWYLQKPGQSPKLLIYKVSNRFSGVPDRFSGSGSGTDFTLKISRVEAEDLGVYYCFQGSHVPFTFGSGTKLEIK
notes: also called p40 [BC28]; p40 (M)
Q: With B1 as the binder, how does the binding (p40 protein (human) [1]) read?
A: binds

Q: And the binding (p40 protein (human) [2])?
A: binds
